Experiment [1] has as its target T1, StepTagII-3FLAG-CLEC-2, a fusion of StrepTactin FLAG double tags and the C-terminal extracellular domain of mouse CLEC-2 (51-229) (mouse) (UniProt Q9JL99).
T1 sequence: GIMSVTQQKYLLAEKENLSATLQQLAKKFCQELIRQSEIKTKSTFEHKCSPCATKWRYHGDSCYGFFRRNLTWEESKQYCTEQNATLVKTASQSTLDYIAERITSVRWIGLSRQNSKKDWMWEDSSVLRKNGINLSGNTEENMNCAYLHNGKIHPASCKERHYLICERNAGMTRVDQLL
The experiment is described as follows: pull-down; Podocyte lysate (1.5 g/L, 50 uL, 1% Triton X-100) mixed with 3 ug of Fc-CLEC-2 or FLAG-CLEC-2 for 1 h at 4 C, captured on KANEKA KanCapA or Strep-Tactin Superflow plus beads, washed three times, blot with anti-PDPN antibody; only the target purified.

Sequences of proteins named here, by UniProt entry; tags and fusion partners are left off. Residues count along the entry.
UniProt Q9P126, residues 51-229: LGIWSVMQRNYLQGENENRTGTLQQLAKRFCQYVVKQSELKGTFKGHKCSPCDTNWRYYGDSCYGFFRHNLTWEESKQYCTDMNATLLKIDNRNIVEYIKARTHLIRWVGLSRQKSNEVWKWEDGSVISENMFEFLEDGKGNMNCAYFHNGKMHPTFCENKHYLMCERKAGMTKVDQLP

In experiment [2] the target is Fc-CLEC-2, a fusion of the Fc tag and C-terminal extracellular domain of human CLEC-2 (51-229) (human) (UniProt Q9P126). The experiment is described as above.
Experiment [3] concerns the target T1, StepTagII-3FLAG-CLEC-2, a fusion of StrepTactin FLAG double tags and the C-terminal extracellular domain of mouse CLEC-2 (51-229) (mouse). Kind of experiment: native gel or EMSA; Blue Native PAGE of the purified recombinant proteins in aqueous solution; both purified. (In general: Mobility shift assays separate free from complexed probe on a gel.)

For two molecules, binding results are on record in paper PMC9792514, “C-type lectin-like receptor (CLEC)-2, the ligand of podoplanin, induces morphological changes in podocytes” (Scientific Reports, 2022).

No constants are given. Whether binding was seen depends on the method and setting. For part of these data: Binding seen in cells or lysates may run through a third protein. Some results given as binding are weak or reduced against the parent protein; the word gives no strength. For part of these data: Sequences can lack the tags named with a protein.

B1: mouse podoplanin (PDPN) (protein, UniProt Q62011 23-172)
chain: GTIGVNEDDIVTPGTGDGMVPPGIEDKITTTGATGGLNESTGKAPLVPTQRERGTKPPLEELSTSATSDHDHREHESTTTVKVVTSHSVDKKTSHPNRDNAGDETQTTDKKDGLPVVTLVGIIVGVLLAIGFVGGIFIVVMKKISGRFSP
For the molecule B1, the binding result in experiment [1] and in experiment [2] was “binds” in each case.

B2: StepTagII-3FLAG-CLEC-2, a fusion of StrepTactin FLAG double tags and the C-terminal extracellular domain of mouse CLEC-2 (51-229) (domain or fragment, UniProt Q9JL99 51-229, looked up)
chain: GIMSVTQQKYLLAEKENLSATLQQLAKKFCQELIRQSEIKTKSTFEHKCSPCATKWRYHGDSCYGFFRRNLTWEESKQYCTEQNATLVKTASQSTLDYIAERITSVRWIGLSRQNSKKDWMWEDSSVLRKNGINLSGNTEENMNCAYLHNGKIHPASCKERHYLICERNAGMTRVDQLL
For B2, in experiment [3], the binding result is “no binding”.
